The source of these data is paper doi:10.1101/2025.07.10.664194.

The experiment deals with T1, BcGabija GajA (Bacillus cereus) (UniProt J8H9C1).
T1 sequence: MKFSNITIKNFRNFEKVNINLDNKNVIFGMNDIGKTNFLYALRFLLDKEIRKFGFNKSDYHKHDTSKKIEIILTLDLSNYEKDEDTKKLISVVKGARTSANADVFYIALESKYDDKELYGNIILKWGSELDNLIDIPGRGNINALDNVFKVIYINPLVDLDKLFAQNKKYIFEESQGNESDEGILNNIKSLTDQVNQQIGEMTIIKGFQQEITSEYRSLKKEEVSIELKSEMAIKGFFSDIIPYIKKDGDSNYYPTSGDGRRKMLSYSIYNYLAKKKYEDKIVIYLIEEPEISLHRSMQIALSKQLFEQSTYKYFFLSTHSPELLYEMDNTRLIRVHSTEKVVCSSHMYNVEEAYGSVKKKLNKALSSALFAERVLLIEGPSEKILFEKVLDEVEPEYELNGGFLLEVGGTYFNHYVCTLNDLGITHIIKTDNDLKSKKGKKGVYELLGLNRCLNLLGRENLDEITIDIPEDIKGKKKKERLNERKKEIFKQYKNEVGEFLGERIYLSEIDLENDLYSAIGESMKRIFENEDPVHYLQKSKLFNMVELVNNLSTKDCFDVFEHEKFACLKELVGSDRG
In words: co-purification.

Results are given in words; binding and its absence hold for the method and conditions named. Some binding calls cover weakened binding; strength is not graded here.

B1: BcGabija GajB (protein, UniProt J8HQ06 1-494)
chain: MSREQIIKDGGNILVTAGAGSGKTTILVSKIEADLKENKTHYSIAAVTFTNKAAKEIEGRLGYSSRGNFIGTNDGFVESEIIRPFIKDAFGNDYPDNFTAEYFDNQFASYDKGLQVLKYQNILGTYSNPKKNFKFQLALDILKKSLVARQYIFSKYFKIFIDEYQDSDKDMHNLFMYLKDQLKIKLFIVGDPKQSIYIWRGAEPENFNGLIENSTDFNKYHLTSNFRCCQDIQNYSNLFNEETRSLIKEKNEVQNVISIADDMPISDILLKLTEEKQVLNIEAELVILVRRRNQAIEIMKELNEEGFNFIFIPQTPLDRATPNATLLKEVIKYVKNDRYSIYDLAAEIVGNLSSREIKEIQKIINELLVPNINQVLINQVLINLFAKLEITLDTREITAFTEVMMTNEFDIAFDTNEYLHKIFTVHSAKGLEFNQVIITASDYNVHYNRDTNEHYVATTRAKDKLIVIMDNKKYSDYIETLMKELKIKNIIKSI
For B1, the binding entry was “binds”.
